Reference: patent US20060293323A1, “Therapeutic Combinations of erb B Kinase Inhibitors and Antineoplastic Therapies” (priority 2002, published 2006)
For at least one compound, name, drawing or mass did not settle the structure.

Test system: SCC-7 Murine Squamous Cell Carcinoma
Assay: SCC-7 murine squamous cell carcinoma, CI-1033 with single-dose radiation
Details: CI-1033 PO days 7-18
Experimental: Two studies were conducted. […] Radiation was delivered as either a single dose or as multiple fractions over a 5-day period.

Which “sensitivity of tumor to CI-1033 therapy alone” value does the source give for `C=CC(=O)Nc1cc2c(Nc3ccc(F)c(Cl)c3)ncnc2cc1OCCCN1CCOCC1` [CI-1033, N-[4-(3-chloro-4-fluoro-phenylamino)-7-(3-morpholin-4-yl-propoxy)-quinazolin-6-yl]-acrylamide] here?
The value was “insensitive to CI-1033 therapy alone”.
